{"sequences": {"note": "The chains behind the UniProt entries cited, without tags or fusion partners.", "UniProt Q9UM00": "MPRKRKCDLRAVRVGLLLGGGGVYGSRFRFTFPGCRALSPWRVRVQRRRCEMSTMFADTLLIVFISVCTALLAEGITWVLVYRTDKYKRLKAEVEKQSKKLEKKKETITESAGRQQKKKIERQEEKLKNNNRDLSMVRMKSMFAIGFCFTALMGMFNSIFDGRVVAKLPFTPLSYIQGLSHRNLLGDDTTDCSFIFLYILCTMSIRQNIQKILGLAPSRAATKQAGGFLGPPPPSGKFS"}, "source": "paper PMC11524394", "biological_target": "Transmembrane and coiled-coil domains 1 (TMCO1) (human (endogenous in DU145 or PC-3)) (UniProt Q9UM00)", "experiment": "co-IP; cell lysate incubated overnight with Protein A + G magnetic beads carrying 3 ug antibody or normal IgG (negative control); detection by Western blot; which antibody precipitated and which cell line was used is not stated", "note": "Results are given in words; binding and its absence hold for the method and conditions named. Binding seen in cells or lysates may run through a third protein. Some binding calls cover weakened binding; strength is not graded here.", "data": [{"substance": "Calreticulin (CALR) (from UniProt P27797 18-417)", "values": [{"measurement": "binding", "result": "binds"}]}]}
